Measured data: PubChem BioAssay AID1508597 (Cure First, 2020)
The deposit covers about 2,100 reagents; shown is a part drawn at random. 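Calls flag viability under 80% in either arm, not effects specific to rucaparib; the reference for percent is not stated.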 Entries without a mark were called inactive. Some reagents were tested in more than one well and are listed for each. The record does not give: the 100% reference.

Test: 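Genes whose silencing sensitises or protects ovarian cancer cells against rucaparib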 (primary screen)
Cell system: human ovarian carcinoma lines grown from tumours: OCI-P5x (papillary serous) and OCI-C5x (clear cell)
Reagent: siRNA pool against human genes, 1.25 pmol siRNA per well
Timing: 72 h or 96 h, depending on the cell culture
Treatment: rucaparib 20 µM (about IC30) or vehicle, present until read-out
Measurement: 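ATP luminescence measured at 72 or 96 h according to the culture, then normalised and expressed as percent viability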
Direction: viability, normalised: higher = more viable cells remaining
Hit rule: 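a well counts as a hit if its normalised viability is under 80 percent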
Calls: active = viability under 80%; inactive = viability 80% or more

For POLH (DNA polymerase eta), rucaparib or vehicle Rucaparib, cell line OCI-C5x (clear cell), technical replicate 1, the entry reads viability, normalised (%) = 48.2 (active).
For POLH (DNA polymerase eta), rucaparib or vehicle Rucaparib, cell line OCI-C5x (clear cell), technical replicate 1, the entry reads viability, normalised (%) = 73.5 (active).
With POLH (DNA polymerase eta), rucaparib or vehicle Rucaparib, cell line OCI-C5x (clear cell), technical replicate 2 the deposit lists viability, normalised (%) = 73.7 (active).
POLH (DNA polymerase eta), rucaparib or vehicle Rucaparib, cell line OCI-C5x (clear cell), technical replicate 2 showed viability, normalised (%) = 60 (active).
POLH (DNA polymerase eta), rucaparib or vehicle Rucaparib, cell line OCI-C5x (clear cell), technical replicate 3 showed viability, normalised (%) = 75.3 (active).
POLH (DNA polymerase eta), rucaparib or vehicle Rucaparib, cell line OCI-C5x (clear cell), technical replicate 3 gave viability, normalised (%) = 53.8 (active).
For POLH (DNA polymerase eta), rucaparib or vehicle Rucaparib, cell line OCI-P5x (serous), technical replicate 1, the values are viability, normalised (%) = 82.
POLH (DNA polymerase eta), rucaparib or vehicle Rucaparib, cell line OCI-P5x (serous), technical replicate 1 showed viability, normalised (%) = 77.3 (active).
For POLH (DNA polymerase eta), rucaparib or vehicle Rucaparib, cell line OCI-P5x (serous), technical replicate 2, the values are viability, normalised (%) = 80.9.
With POLH (DNA polymerase eta), rucaparib or vehicle Rucaparib, cell line OCI-P5x (serous), technical replicate 2, the entry reads viability, normalised (%) = 63.7 (active).
POLH (DNA polymerase eta), rucaparib or vehicle Rucaparib, cell line OCI-P5x (serous), technical replicate 3 scored viability, normalised (%) = 73 (active).
For POLH (DNA polymerase eta), rucaparib or vehicle Rucaparib, cell line OCI-P5x (serous), technical replicate 3 the deposit lists viability, normalised (%) = 79.2 (active).
For POLH (DNA polymerase eta), rucaparib or vehicle Vehicle, cell line OCI-C5x (clear cell), technical replicate 1, the values are viability, normalised (%) = 61.5 (active).
With POLH (DNA polymerase eta), rucaparib or vehicle Vehicle, cell line OCI-C5x (clear cell), technical replicate 1 the deposit lists viability, normalised (%) = 59.3 (active).
With POLH (DNA polymerase eta), rucaparib or vehicle Vehicle, cell line OCI-C5x (clear cell), technical replicate 2, the entry reads viability, normalised (%) = 64.4 (active).
POLH (DNA polymerase eta), rucaparib or vehicle Vehicle, cell line OCI-C5x (clear cell), technical replicate 2 showed viability, normalised (%) = 63.4 (active).
POLH (DNA polymerase eta), rucaparib or vehicle Vehicle, cell line OCI-C5x (clear cell), technical replicate 3 showed viability, normalised (%) = 58.6 (active).
For POLH (DNA polymerase eta), rucaparib or vehicle Vehicle, cell line OCI-C5x (clear cell), technical replicate 3, the values are viability, normalised (%) = 45.3 (active).
POLH (DNA polymerase eta), rucaparib or vehicle Vehicle, cell line OCI-P5x (serous), technical replicate 1 gave viability, normalised (%) = 68.1 (active).
For POLH (DNA polymerase eta), rucaparib or vehicle Vehicle, cell line OCI-P5x (serous), technical replicate 1, the values are viability, normalised (%) = 67.4 (active).
With POLH (DNA polymerase eta), rucaparib or vehicle Vehicle, cell line OCI-P5x (serous), technical replicate 2, the entry reads viability, normalised (%) = 71 (active).
POLH (DNA polymerase eta), rucaparib or vehicle Vehicle, cell line OCI-P5x (serous), technical replicate 2 gave viability, normalised (%) = 41.9 (active).
POLH (DNA polymerase eta), rucaparib or vehicle Vehicle, cell line OCI-P5x (serous), technical replicate 3 scored viability, normalised (%) = 63 (active).
With POLH (DNA polymerase eta), rucaparib or vehicle Vehicle, cell line OCI-P5x (serous), technical replicate 3, the entry reads viability, normalised (%) = 72.8 (active).
SRSF1 (serine and arginine rich splicing factor 1), rucaparib or vehicle Rucaparib, cell line OCI-C5x (clear cell), technical replicate 1 gave viability, normalised (%) = 51.4 (active).
With SRSF1 (serine and arginine rich splicing factor 1), rucaparib or vehicle Rucaparib, cell line OCI-C5x (clear cell), technical replicate 2, the values are viability, normalised (%) = 31.7 (active).
SRSF1 (serine and arginine rich splicing factor 1), rucaparib or vehicle Rucaparib, cell line OCI-C5x (clear cell), technical replicate 3 scored viability, normalised (%) = 41.3 (active).
SRSF1 (serine and arginine rich splicing factor 1), rucaparib or vehicle Rucaparib, cell line OCI-P5x (serous), technical replicate 1 scored viability, normalised (%) = 82.6.
For SRSF1 (serine and arginine rich splicing factor 1), rucaparib or vehicle Rucaparib, cell line OCI-P5x (serous), technical replicate 2, the values are viability, normalised (%) = 88.4.
For SRSF1 (serine and arginine rich splicing factor 1), rucaparib or vehicle Rucaparib, cell line OCI-P5x (serous), technical replicate 3, the entry reads viability, normalised (%) = 83.6.
SRSF1 (serine and arginine rich splicing factor 1), rucaparib or vehicle Vehicle, cell line OCI-C5x (clear cell), technical replicate 1 showed viability, normalised (%) = 31.5 (active).
SRSF1 (serine and arginine rich splicing factor 1), rucaparib or vehicle Vehicle, cell line OCI-C5x (clear cell), technical replicate 2 gave viability, normalised (%) = 38 (active).
With SRSF1 (serine and arginine rich splicing factor 1), rucaparib or vehicle Vehicle, cell line OCI-C5x (clear cell), technical replicate 3 the deposit lists viability, normalised (%) = 34.3 (active).
With SRSF1 (serine and arginine rich splicing factor 1), rucaparib or vehicle Vehicle, cell line OCI-P5x (serous), technical replicate 1, the entry reads viability, normalised (%) = 75.6 (active).
SRSF1 (serine and arginine rich splicing factor 1), rucaparib or vehicle Vehicle, cell line OCI-P5x (serous), technical replicate 2 scored viability, normalised (%) = 72.7 (active).
With SRSF1 (serine and arginine rich splicing factor 1), rucaparib or vehicle Vehicle, cell line OCI-P5x (serous), technical replicate 3, the entry reads viability, normalised (%) = 76.8 (active).
With BORA (BORA aurora kinase A activator), rucaparib or vehicle Rucaparib, cell line OCI-C5x (clear cell), technical replicate 1 the deposit lists viability, normalised (%) = 50.8 (active).
For BORA (BORA aurora kinase A activator), rucaparib or vehicle Rucaparib, cell line OCI-C5x (clear cell), technical replicate 2 the deposit lists viability, normalised (%) = 29.7 (active).
BORA (BORA aurora kinase A activator), rucaparib or vehicle Rucaparib, cell line OCI-C5x (clear cell), technical replicate 3 scored viability, normalised (%) = 45.6 (active).
For BORA (BORA aurora kinase A activator), rucaparib or vehicle Rucaparib, cell line OCI-P5x (serous), technical replicate 1, the entry reads viability, normalised (%) = 50.7 (active).
BORA (BORA aurora kinase A activator), rucaparib or vehicle Rucaparib, cell line OCI-P5x (serous), technical replicate 2 gave viability, normalised (%) = 57.6 (active).
BORA (BORA aurora kinase A activator), rucaparib or vehicle Rucaparib, cell line OCI-P5x (serous), technical replicate 3 scored viability, normalised (%) = 68.6 (active).
BORA (BORA aurora kinase A activator), rucaparib or vehicle Vehicle, cell line OCI-C5x (clear cell), technical replicate 1 gave viability, normalised (%) = 24.5 (active).
For BORA (BORA aurora kinase A activator), rucaparib or vehicle Vehicle, cell line OCI-C5x (clear cell), technical replicate 2 the deposit lists viability, normalised (%) = 34.1 (active).
With BORA (BORA aurora kinase A activator), rucaparib or vehicle Vehicle, cell line OCI-C5x (clear cell), technical replicate 3, the entry reads viability, normalised (%) = 21.1 (active).
BORA (BORA aurora kinase A activator), rucaparib or vehicle Vehicle, cell line OCI-P5x (serous), technical replicate 1 scored viability, normalised (%) = 56.2 (active).
For BORA (BORA aurora kinase A activator), rucaparib or vehicle Vehicle, cell line OCI-P5x (serous), technical replicate 2 the deposit lists viability, normalised (%) = 50.3 (active).
For BORA (BORA aurora kinase A activator), rucaparib or vehicle Vehicle, cell line OCI-P5x (serous), technical replicate 3 the deposit lists viability, normalised (%) = 54.2 (active).
